According to paper PMC9841341:
Results are given in words; binding and its absence hold for the method and conditions named. Some results given as binding are weak or reduced against the parent protein; the word gives no strength.

Protein sequences, listed by entry. Tags and fused reporters are not part of them. Residues count along the entry.
UniProt Q8CIZ8, residues 764-2813: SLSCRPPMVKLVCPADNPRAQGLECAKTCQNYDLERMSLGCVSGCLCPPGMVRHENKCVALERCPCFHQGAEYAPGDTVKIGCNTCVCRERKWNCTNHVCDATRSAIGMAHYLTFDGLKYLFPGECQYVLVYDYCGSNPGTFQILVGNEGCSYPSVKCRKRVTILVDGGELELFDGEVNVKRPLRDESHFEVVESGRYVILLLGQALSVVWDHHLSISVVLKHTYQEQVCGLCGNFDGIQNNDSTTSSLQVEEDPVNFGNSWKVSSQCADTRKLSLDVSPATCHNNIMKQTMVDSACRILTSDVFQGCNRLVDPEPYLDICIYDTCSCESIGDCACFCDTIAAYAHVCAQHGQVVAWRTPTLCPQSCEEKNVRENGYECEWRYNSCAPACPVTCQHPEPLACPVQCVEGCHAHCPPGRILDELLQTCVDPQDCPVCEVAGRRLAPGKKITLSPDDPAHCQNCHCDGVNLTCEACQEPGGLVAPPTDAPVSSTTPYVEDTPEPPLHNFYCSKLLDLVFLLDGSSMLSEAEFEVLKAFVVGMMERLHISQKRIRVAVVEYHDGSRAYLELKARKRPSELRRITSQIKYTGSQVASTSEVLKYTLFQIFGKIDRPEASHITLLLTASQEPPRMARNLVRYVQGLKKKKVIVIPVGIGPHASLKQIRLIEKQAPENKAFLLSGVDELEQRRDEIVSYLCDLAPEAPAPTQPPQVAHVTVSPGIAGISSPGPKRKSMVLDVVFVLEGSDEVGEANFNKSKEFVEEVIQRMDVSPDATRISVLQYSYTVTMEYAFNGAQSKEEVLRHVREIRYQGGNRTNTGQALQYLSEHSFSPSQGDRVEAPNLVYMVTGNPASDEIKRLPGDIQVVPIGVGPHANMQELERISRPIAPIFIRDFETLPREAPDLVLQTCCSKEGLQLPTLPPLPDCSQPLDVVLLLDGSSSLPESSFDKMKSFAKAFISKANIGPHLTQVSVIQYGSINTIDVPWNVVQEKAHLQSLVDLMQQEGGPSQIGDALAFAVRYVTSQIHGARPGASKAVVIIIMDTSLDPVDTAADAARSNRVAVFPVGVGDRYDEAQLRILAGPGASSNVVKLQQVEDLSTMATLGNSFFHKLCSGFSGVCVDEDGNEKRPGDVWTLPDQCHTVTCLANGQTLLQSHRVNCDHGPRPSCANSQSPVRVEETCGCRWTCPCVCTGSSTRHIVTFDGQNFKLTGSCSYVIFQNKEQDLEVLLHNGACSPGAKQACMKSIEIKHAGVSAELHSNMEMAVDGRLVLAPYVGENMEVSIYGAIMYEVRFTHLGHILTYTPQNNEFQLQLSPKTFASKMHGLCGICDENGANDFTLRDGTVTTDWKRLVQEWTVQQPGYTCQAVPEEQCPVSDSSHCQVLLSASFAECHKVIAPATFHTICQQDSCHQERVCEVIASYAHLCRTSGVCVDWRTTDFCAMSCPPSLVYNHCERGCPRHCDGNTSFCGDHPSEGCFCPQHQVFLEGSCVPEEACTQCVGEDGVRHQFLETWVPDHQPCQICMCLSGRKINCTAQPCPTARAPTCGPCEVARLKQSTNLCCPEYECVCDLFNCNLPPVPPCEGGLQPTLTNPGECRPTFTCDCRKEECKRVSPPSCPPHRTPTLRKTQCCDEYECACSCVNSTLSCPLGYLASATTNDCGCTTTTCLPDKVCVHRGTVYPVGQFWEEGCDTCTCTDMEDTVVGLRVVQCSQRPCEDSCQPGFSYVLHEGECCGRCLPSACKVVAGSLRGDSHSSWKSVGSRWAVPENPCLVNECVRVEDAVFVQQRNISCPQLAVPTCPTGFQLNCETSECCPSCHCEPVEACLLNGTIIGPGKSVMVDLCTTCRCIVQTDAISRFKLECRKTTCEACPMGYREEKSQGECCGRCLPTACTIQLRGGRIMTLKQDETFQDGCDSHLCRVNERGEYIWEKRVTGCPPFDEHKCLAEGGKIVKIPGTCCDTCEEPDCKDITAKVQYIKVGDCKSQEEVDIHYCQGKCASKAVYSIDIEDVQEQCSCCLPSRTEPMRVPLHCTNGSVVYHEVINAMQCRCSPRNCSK

Molecular target: von Willebrand factor (Vwf) (mouse (endogenous in plasma)) (UniProt Q8CIZ8)
Assay: SDS/agarose gel electrophoresis with immunoblot; plasma of WT and QSOX1 KO mice diluted 1:20, SDS/agarose gel, vacuum blot to PVDF, probed with rabbit anti-VWF

## von Willebrand factor (Vwf) (from UniProt Q8CIZ8 764-2813)
  binding: binds
